This is an account of results in PMC9909464, “The human MRS2 magnesium-binding domain is a regulatory feedback switch for channel activity” (Life Science Alliance, 2023).

These are yes or no findings as the source states them, for the method shown.

Experiment [1] addresses full-length human MRS2 excluding the mitochondrial targeting sequence, MRS2_(58–443) (human) (UniProt Q9HD23). As to the kind of experiment: dynamic light scattering; as a9 but with 5 mM CoCl2; both purified.
The target of experiment [2] is human MRS2 amino terminal domain, MRS2_(58–333) (human) (UniProt Q9HD23). As to the kind of experiment: condition: only with 5 mM MgCl2, injected at 2.5 mg/ml or less; SEC-MALS; as a1 but 5 mM MgCl2 in running buffer and sample; injected at 2.5 mg/ml or less; both purified. For orientation: Size exclusion chromatography separates by hydrodynamic size, large species first.

Experiment [3] shares this target. As to the kind of experiment: dynamic light scattering; as a6 but with 5 mM MgCl2, 20 and 37°C; both purified.
Experiment [4] has the same target. Briefly: dynamic light scattering; as a6 but with 5 mM CaCl2, 20 and 37°C; both purified.
For experiment [5] the target is unchanged. Briefly: condition: only with 10 mM MgCl2, injected at 5 mg/ml; SEC-MALS; as a1 but 10 mM MgCl2 in running buffer and sample; injected at 5 mg/ml; both purified.
For experiment [6] the target is unchanged. Briefly: condition: only with 5 mM CaCl2, injected at 2.5 and 5.0 mg/ml; SEC-MALS; as a1 but 5 mM CaCl2 in running buffer and sample; injected at 2.5 and 5.0 mg/ml; both purified.

B1: full-length human MRS2 excluding the mitochondrial targeting sequence, MRS2_(58–443) (natural protein, UniProt Q9HD23 58-443, looked up)
chain: DRLRVAGEVHRFRTSDVSQATLASVAPVFTVTKFDKQGNVTSFERKKTELYQELGLQARDLRFQHVMSITVRNNRIIMRMEYLKAVITPECLLILDYRNLNLEQWLFRELPSQLSGEGQLVTYPLPFEFRAIEALLQYWINTLQGKLSILQPLILETLDALVDPKHSSVDRSKLHILLQNGKSLSELETDIKIFKESILEILDEEELLEELCVSKWSDPQVFEKSSAGIDHAEEMELLLENYYRLADDLSNAARELRVLIDDSQSIIFINLDSHRNVMMRLNLQLTMGTFSLSLFGLMGVAFGMNLESSLEEDHRIFWLITGIMFMGSGLIWRRLLSFLGRQLEAPLPPMMASLPKKTLLADRSMELKNSLRLDGLGSGRSILTNR
notes: in CHAPS micelles in the assay; also called full-length MRS2; source: E. coli BL21 (DE3), purified as the NTD with 10 mM CHAPS in elution and SEC buffers; not shown: His6, N-terminal, cleaved
On to B1, for which, in experiment [1], the binding result is given as “no binding (condition: with 5 mM CoCl2)”.

B2: human MRS2 amino terminal domain, MRS2_(58–333) (domain or fragment, UniProt Q9HD23 58-333, looked up)
chain: DRLRVAGEVHRFRTSDVSQATLASVAPVFTVTKFDKQGNVTSFERKKTELYQELGLQARDLRFQHVMSITVRNNRIIMRMEYLKAVITPECLLILDYRNLNLEQWLFRELPSQLSGEGQLVTYPLPFEFRAIEALLQYWINTLQGKLSILQPLILETLDALVDPKHSSVDRSKLHILLQNGKSLSELETDIKIFKESILEILDEEELLEELCVSKWSDPQVFEKSSAGIDHAEEMELLLENYYRLADDLSNAARELRVLIDDSQSIIFINLDSHRN
notes: Cloned into pET-28a by NdeI and XhoI; also called MRS2 NTD; NTD; source: E. coli BL21 (DE3), purified (nickel-NTA, thrombin cleavage, SEC S200); not shown: His6, N-terminal, cleaved
As to B2, the binding entry in experiment [2] is given as “no binding”; in experiment [3], “no binding (condition: with 5 mM MgCl2)”; in experiment [4], “no binding (condition: with 5 mM CaCl2)”; in experiment [5], “no binding”; in experiment [6], “no binding”.
